Data taken from patent US20090180995A1, “NOVEL ANTICOAGULANT POLYPEPTIDES AND COMPLEX” (National University of Singapore, priority 2005, published 2009).
No constants are given. Whether binding was seen depends on the method and setting. Some entries that bind do so weakly or less than the wild type.

Assays:
[1] = biological target: T1, hemextin B (Hemachatus haemachatus (African Ringhals cobra)); assay: ITC
T1 sequence: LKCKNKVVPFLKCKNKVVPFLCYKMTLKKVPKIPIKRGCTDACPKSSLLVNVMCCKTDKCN

[2] = biological target: T1, hemextin B (Hemachatus haemachatus (African Ringhals cobra)); assay: GEMMA molecular diameter
[3] = biological target: T1, hemextin B (Hemachatus haemachatus (African Ringhals cobra)); assay: gel filtration, Superdex 30
[4] = biological target: T1, hemextin B (Hemachatus haemachatus (African Ringhals cobra)); assay: far UV CD titration of hemextin A with hemextin B
[5] = biological target: T1, hemextin B (Hemachatus haemachatus (African Ringhals cobra)); assay: SEC in Tris-HCl with glycerol; dimer peak analysed by ESI-MS and HPLC

Measured: binding

B1: hemextin A (protein)
chain: LKCKNKLVPFLSKTCPEGKNLCYKMTMLKMPKIPIKRGCTDACPKSSLLVKVVCCNKDKCN
binds: all assays above
